Test results from the supplement of paper PMC10849652.
The list shows a part of the results.

Protein sequences, listed by entry. Tags and fused reporters are not part of them. Lines headed by an entry give the natural chain unless they say otherwise; changes in a name come on top.
UniProt Q8NFZ0: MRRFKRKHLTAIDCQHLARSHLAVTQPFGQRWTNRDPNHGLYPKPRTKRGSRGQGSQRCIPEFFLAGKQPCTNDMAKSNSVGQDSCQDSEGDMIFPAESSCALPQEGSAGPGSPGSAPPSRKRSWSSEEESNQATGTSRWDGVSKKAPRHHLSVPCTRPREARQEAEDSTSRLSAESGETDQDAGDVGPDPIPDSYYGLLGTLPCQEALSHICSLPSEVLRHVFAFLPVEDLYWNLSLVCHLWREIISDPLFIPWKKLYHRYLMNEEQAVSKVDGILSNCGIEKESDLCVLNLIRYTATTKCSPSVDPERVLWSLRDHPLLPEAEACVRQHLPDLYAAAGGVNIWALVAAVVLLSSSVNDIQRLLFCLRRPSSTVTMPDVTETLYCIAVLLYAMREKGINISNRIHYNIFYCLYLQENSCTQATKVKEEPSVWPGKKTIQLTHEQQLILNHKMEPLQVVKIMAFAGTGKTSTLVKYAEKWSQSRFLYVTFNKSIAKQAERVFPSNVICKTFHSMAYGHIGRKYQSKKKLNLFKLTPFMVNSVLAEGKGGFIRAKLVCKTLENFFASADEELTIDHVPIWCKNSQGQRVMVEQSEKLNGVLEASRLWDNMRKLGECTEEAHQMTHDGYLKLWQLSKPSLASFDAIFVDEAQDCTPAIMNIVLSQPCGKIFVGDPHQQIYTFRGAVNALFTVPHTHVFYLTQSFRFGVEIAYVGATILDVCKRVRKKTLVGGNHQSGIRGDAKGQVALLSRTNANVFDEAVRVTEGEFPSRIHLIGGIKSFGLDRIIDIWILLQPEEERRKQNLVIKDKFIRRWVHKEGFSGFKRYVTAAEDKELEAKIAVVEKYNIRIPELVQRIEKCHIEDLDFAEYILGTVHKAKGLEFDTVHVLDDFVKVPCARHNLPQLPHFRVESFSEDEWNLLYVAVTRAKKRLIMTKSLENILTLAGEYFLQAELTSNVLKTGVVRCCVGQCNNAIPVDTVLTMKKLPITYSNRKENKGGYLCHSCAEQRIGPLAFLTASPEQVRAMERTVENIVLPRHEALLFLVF
UniProt Q9UK99: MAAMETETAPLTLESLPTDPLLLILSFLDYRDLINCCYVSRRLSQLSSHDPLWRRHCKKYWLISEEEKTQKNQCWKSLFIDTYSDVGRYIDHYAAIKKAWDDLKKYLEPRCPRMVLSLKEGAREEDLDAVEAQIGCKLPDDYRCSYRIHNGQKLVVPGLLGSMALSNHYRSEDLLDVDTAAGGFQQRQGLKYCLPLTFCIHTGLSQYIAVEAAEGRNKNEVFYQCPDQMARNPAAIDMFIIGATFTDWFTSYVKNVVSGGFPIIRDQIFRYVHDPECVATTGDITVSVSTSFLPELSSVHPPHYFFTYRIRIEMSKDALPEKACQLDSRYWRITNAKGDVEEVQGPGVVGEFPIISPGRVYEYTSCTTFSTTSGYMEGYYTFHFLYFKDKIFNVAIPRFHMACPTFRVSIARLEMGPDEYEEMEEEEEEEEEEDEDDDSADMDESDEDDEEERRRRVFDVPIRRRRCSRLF
UniProt Q8TDW7: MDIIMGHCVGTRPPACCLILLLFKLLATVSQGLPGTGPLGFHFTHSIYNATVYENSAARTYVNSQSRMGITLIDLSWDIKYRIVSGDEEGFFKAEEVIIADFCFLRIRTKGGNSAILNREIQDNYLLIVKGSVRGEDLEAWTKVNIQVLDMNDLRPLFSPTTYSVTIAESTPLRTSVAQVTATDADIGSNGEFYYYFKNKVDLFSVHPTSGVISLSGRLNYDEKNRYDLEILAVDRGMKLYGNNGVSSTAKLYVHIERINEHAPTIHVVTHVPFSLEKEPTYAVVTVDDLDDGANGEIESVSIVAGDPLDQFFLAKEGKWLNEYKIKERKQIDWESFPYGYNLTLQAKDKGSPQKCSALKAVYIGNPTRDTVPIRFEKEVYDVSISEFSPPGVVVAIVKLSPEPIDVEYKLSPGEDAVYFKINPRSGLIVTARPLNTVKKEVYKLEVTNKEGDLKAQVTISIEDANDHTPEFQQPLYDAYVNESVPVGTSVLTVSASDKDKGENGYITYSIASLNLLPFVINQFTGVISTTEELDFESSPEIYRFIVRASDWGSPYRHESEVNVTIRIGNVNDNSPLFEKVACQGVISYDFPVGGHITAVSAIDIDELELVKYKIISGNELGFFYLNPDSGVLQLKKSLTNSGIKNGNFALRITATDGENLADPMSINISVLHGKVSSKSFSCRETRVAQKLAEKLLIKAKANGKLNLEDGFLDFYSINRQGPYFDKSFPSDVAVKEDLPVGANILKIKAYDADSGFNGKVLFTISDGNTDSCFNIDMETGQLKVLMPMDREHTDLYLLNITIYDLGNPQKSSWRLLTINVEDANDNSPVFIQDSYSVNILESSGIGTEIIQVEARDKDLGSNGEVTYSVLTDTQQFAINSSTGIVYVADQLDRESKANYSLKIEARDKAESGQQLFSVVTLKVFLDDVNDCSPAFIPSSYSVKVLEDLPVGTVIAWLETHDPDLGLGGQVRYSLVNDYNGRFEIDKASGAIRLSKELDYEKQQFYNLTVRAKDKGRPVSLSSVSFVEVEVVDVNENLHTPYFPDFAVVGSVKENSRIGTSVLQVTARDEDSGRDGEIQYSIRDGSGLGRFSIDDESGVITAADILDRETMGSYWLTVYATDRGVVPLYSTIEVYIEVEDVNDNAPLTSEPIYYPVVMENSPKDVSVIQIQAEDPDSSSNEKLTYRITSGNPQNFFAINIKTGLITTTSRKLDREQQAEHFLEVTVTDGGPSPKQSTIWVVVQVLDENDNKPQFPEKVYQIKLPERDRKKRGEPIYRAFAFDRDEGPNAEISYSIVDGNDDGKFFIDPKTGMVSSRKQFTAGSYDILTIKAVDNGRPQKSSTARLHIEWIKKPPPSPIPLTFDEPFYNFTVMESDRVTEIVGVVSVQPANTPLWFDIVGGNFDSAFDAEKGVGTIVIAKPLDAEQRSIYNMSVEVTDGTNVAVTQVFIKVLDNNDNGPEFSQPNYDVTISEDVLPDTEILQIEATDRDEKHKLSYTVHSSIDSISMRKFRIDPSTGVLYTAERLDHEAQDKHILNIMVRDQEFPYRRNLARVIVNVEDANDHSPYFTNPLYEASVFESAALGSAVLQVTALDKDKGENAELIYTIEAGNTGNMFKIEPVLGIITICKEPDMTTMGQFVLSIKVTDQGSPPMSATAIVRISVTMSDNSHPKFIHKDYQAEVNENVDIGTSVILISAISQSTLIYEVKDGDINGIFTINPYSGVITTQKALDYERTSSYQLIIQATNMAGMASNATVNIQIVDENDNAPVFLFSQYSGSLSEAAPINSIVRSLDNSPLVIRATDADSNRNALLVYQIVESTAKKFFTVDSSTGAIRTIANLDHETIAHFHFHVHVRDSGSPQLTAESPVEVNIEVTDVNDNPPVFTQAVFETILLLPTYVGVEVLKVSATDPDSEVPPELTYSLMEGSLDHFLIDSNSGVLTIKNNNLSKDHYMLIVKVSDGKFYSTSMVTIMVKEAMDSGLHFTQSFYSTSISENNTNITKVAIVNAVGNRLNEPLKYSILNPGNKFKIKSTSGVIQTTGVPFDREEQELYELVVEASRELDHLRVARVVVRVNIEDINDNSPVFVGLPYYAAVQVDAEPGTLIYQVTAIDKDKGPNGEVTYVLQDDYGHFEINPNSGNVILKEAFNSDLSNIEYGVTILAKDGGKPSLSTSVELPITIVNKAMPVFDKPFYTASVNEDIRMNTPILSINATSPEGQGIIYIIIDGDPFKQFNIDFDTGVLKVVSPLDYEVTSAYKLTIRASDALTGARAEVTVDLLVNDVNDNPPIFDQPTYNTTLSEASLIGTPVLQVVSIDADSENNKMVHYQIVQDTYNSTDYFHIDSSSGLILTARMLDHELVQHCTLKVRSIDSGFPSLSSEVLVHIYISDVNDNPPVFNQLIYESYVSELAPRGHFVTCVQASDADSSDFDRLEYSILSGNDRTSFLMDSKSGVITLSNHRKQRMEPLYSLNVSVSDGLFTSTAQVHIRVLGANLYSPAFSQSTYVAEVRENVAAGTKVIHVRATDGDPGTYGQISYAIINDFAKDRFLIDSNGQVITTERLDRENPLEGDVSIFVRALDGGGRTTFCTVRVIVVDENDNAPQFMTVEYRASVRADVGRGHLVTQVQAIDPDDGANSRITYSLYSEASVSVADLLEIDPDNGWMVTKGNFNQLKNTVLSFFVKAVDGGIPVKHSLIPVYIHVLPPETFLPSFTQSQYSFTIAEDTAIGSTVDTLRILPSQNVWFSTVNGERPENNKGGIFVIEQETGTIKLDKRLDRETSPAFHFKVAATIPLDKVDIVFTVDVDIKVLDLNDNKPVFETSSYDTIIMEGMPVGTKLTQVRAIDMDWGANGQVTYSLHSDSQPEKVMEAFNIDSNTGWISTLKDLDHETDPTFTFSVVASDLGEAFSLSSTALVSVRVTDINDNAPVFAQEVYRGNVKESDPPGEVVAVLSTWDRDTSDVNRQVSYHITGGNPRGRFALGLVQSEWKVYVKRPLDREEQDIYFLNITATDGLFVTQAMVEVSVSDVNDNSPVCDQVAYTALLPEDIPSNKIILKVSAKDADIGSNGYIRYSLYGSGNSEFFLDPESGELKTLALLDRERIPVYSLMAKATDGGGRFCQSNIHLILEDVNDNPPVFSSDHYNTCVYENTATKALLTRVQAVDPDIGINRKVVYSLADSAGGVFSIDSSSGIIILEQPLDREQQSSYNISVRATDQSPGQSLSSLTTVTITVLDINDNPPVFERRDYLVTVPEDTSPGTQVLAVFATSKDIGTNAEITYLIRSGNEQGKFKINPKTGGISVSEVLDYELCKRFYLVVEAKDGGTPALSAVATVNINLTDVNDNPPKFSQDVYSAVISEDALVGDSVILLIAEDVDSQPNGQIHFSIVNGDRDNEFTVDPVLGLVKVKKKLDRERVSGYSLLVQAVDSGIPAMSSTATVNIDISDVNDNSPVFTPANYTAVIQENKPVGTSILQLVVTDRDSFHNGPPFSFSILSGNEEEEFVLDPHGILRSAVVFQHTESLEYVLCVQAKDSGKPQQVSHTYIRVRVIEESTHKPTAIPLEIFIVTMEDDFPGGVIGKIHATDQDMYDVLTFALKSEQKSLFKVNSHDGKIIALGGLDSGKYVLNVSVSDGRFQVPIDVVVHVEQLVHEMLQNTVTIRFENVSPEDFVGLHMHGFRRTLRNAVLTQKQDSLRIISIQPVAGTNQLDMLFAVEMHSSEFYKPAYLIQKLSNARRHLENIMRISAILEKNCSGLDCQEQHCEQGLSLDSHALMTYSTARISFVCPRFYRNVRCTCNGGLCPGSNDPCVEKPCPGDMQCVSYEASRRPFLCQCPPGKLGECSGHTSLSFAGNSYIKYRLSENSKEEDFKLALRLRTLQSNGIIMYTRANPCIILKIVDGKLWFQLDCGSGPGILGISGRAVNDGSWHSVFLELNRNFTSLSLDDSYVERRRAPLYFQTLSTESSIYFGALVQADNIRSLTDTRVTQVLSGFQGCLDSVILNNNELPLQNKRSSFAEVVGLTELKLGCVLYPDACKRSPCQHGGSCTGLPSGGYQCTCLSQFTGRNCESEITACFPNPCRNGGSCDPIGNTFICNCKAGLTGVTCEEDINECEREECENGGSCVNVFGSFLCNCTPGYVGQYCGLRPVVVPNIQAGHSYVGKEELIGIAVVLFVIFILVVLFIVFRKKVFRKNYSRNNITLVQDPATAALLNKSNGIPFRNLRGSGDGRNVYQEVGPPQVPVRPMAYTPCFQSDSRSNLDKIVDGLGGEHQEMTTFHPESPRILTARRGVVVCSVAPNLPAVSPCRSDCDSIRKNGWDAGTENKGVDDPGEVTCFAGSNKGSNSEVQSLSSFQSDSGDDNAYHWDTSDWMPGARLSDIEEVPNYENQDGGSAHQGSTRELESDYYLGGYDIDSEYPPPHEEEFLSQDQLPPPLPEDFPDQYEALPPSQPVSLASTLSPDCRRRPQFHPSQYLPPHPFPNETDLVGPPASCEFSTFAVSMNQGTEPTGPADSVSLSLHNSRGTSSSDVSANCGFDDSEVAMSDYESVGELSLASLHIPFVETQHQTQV
UniProt P22570: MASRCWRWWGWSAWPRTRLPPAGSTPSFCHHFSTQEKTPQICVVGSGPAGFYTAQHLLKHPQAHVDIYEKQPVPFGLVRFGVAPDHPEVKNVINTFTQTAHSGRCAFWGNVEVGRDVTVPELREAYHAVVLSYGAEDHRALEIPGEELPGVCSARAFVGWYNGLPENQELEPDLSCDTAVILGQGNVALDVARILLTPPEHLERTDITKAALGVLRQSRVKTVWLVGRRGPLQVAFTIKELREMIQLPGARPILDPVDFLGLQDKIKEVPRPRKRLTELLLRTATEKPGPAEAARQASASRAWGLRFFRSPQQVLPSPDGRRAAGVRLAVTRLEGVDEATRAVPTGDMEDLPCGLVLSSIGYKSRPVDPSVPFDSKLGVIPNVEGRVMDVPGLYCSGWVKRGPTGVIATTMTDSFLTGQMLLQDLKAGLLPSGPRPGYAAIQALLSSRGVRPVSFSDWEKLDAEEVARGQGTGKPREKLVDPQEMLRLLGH

Tests used:
Assay in all cases: log2 fold change, soluble protein after heating vs DMSO (PISA); higher = thermal stabilisation; K562 cells, 10 uM, 30 min; active = over 0.2 and 3.5 SD of the protein, either way, in both replicates (recomputed)
[1] = compound: CS(=O)(=O)c1ccc(-c2cnc(N)c(C(=O)Nc3ccccc3)n2)cc1
How it was run: (§1)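 Values are thermal stability changes relative to control samples and are taken from duplicates. They are stated as log2 fold changes. Before quantification by TMTpro 16plex LC-MS/MS with equalised channel sums, K562 cells at 2×10^6 cells/mL were treated with 10 μM compound for 30 min, heated in aliquots for 3 min across 48°C-58°C, pooled, extracted in PBS with 0.5% NP-40 at 4°C, and centrifuged at 21,000xg for 90 min to give the soluble supernatant.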

[2] = compound: C[C@@H](Oc1cc(-c2cnn(C3CCNCC3)c2)cnc1N)c1c(Cl)ccc(F)c1Cl [crizotinib]
How it was run: as §1

[3] = compound: C[C@@H]1COCCN1C2=NC(=NC(=C2)C3(CC3)S(=O)(=O)C)C4=C5C=CNC5=CC=C4
How it was run: as §1

[4] = compound: C[C@H](C1=CC=C(C=C1)C(=O)NC2=C3C=CNC3=NC=C2)N
How it was run: as §1

[5] = compound: Cc1cc(Nc2cc(CN3CCOCC3)c3nc(C)c(Cc4ccc(Cl)cc4F)n3n2)n[nH]1 [gandotinib]
How it was run: as §1

[6] = compound: Cc1cc(SCc2sc(-c3ccc(C(F)(F)F)cc3)nc2C)ccc1OCC(=O)O
How it was run: as §1

[7] = compound: Cc1ccc(-n2nc(C(C)(C)C)cc2NC(=O)Nc2ccc(OCCN3CCOCC3)c3ccccc23)cc1 [doramapimod]
How it was run: as §1

[8] = compound: Cc1ccc(C(=O)N(CCCN)[C@@H](c2nc3cc(Cl)ccc3c(=O)n2Cc2ccccc2)C(C)C)cc1 [ispinesib]
How it was run: as §1

[9] = compound: Cc1ccc(NC(=O)c2ccc(CN3CC[C@H](N(C)C)C3)c(C(F)(F)F)c2)cc1Nc1nccc(-c2cncnc2)n1 [bafetinib]
How it was run: as §1

[10] = compound: Cc1cccc(CC(=O)N2CCc3c2ccc(-c2cn(C)c4ncnc(N)c24)c3F)n1
How it was run: as §1

[11] = compound: Cc1cn(-c2cc(NC(=O)c3ccc(C)c(Nc4nccc(-c5cccnc5)n4)c3)cc(C(F)(F)F)c2)cn1 [nilotinib]
How it was run: as §1

[12] = compound: Cc1nc(Nc2n[nH]c3c2CN(C(=O)N[C@H](CN(C)C)c2ccccc2)C3(C)C)c2sccc2n1
How it was run: as §1

[13] = compound: Cc1nc(Nc2ncc(C(=O)Nc3c(C)cccc3Cl)s2)cc(N2CCN(CCO)CC2)n1 [dasatinib]
How it was run: as §1

[14] = compound: Cc1ncc(-c2ccnc(Nc3ccc(S(C)(=O)=O)cc3)n2)n1C(C)C
How it was run: as §1

[15] = compound: Cn1cc(-c2ccc3c(c2)CCN3C(=O)Cc2cccc(C(F)(F)F)c2)c2c(N)ncnc21
How it was run: as §1

[16] = compound: Cn1cc(-c2ccc3nnc(C(F)(F)c4ccc5ncccc5c4)n3n2)cn1
How it was run: as §1

[17] = compound: C[C@H](Nc1ncnc2nc[nH]c12)c1cc2cccc(Cl)c2c(=O)n1-c1ccccc1 [duvelisib]
How it was run: as §1

[18] = compound: Cc1cc(Nc2cc(N3CCN(C)CC3)nc(Sc3ccc(NC(=O)C4CC4)cc3)n2)n[nH]1 [tozasertib]
How it was run: as §1

[19] = compound: Cn1cncc1[C@@](N)(c1ccc(Cl)cc1)c1ccc2c(c1)c(-c1cccc(Cl)c1)cc(=O)n2C [tipifarnib]
How it was run: as §1

[20] = compound: FC(F)(F)c1ccc(/C=C/c2nc(COc3ccc(CCCCn4ccnn4)cc3)co2)cc1 [mubritinib]
How it was run: as §1

Measured: log2 fold change

FASTKD1 (UniProt Q53R41)
active: [12] 0.54
inactive: [1] 0.097 | [2] 0.001 | [3] 0.097 | [4] -0.027 | [5] -0.284 | [6] 0.12 | [7] 0.037 | [8] -0.013 | [9] 0.098 | [10] -0.021 | [11] -0.183 | [13] -0.168 | [14] -0.053 | [15] 0.217 | [16] -0.064

FKBP8 isoform 2 (UniProt Q14318)
inactive: [1] 0.042 | [2] -0.095 | [3] -0.174 | [4] 0.212 | [17] -0.086 | [5] 0.078 | [18] -0.036 | [6] 0.153 | [7] 0.177 | [8] -0.318 | [9] 0.22 | [10] 0.072 | [11] -0.082 | [12] -0.08 | [13] 0 | [14] -0.023 | [15] -0.139 | [16] -0.142 | [19] 0.049 | [20] -0.14

FERMT3 (UniProt Q86UX7)
inactive: [1] 0.038 | [2] -0.091 | [3] 0.02 | [4] -0.04 | [5] -0.064 | [6] 0.057 | [7] 0.001 | [8] -0.04 | [9] -0.022 | [10] 0.029 | [11] -0.036 | [12] -0.053 | [13] -0.075 | [14] -0.015 | [15] 0.029 | [16] -0.019 | [19] -0.087 | [20] 0.051

FGF13 isoform 3 (UniProt Q92913)
inactive: [1] 0.049 | [2] -0.005 | [3] 0.059 | [4] 0.026 | [17] 0.123 | [5] -0.045 | [18] -0.033 | [6] 0.125 | [7] -0.011 | [8] 0.09 | [9] -0.076 | [10] -0.039 | [11] 0 | [12] 0.017 | [13] -0.109 | [14] -0.041 | [15] 0.024 | [16] -0.068 | [19] 0.065 | [20] 0.026

FBXL18 isoform 4 (UniProt Q96ME1)
inactive: [1] 0.003 | [2] -0.056 | [3] 0.178 | [4] -0.148 | [17] 0.032 | [5] -0.052 | [18] -0.005 | [6] 0.02 | [7] -0.006 | [8] 0.021 | [9] -0.03 | [10] 0.077 | [11] -0.047 | [12] -0.012 | [13] -0.049 | [14] -0.022 | [15] 0.031 | [16] 0.008 | [19] -0.067 | [20] 0.095

FBH1 isoform 2 (UniProt Q8NFZ0)
inactive: [1] -0.088 | [2] -0.027 | [3] -0.03 | [5] 0.067 | [18] -0.08 | [7] -0.018 | [8] -0.074 | [9] 0.004 | [10] -0.038 | [11] -0.081 | [12] -0.003 | [14] 0.201 | [16] 0.044 | [19] -0.031 | [20] -0.287

FIBP (UniProt O43427)
inactive: [1] 0.022 | [2] -0.043 | [3] 0.257 | [4] 0.118 | [5] -0.094 | [6] 0.02 | [7] -0.048 | [8] -0.052 | [9] -0.096 | [10] -0.093 | [13] -0.201 | [15] 0.118 | [16] -0.06 | [19] -0.029 | [20] 0.134

FBXO3 (UniProt Q9UK99)
inactive: [1] 0.055 | [2] 0.005 | [3] -0.095 | [4] 0.008 | [5] -0.112 | [6] -0.025 | [7] -0.003 | [8] 0.082 | [9] -0.052 | [10] 0.06 | [11] -0.031 | [12] -0.024 | [13] -0.054 | [14] -0.006 | [15] 0.041 | [16] -0.035 | [19] -0.007 | [20] 0.055

FASTKD5 (UniProt Q7L8L6)
inactive: [1] 0.096 | [3] 0.104 | [4] 0.347 | [17] 0.149 | [5] -0.396 | [18] 0.089 | [6] 0.319 | [8] 0.011 | [9] -0.062 | [10] -0.029 | [13] -0.411 | [15] -0.135 | [16] 0.157 | [19] 0.106

FKBP7 (UniProt Q9Y680)
inactive: [1] 0.052 | [2] 0.094 | [3] 0.003 | [4] 0.114 | [5] 0.114 | [6] 0.005 | [7] -0.023 | [8] 0.044 | [9] 0 | [10] -0.04 | [11] 0.055 | [12] -0.058 | [13] 0.064 | [14] 0 | [15] 0.071 | [16] 0.012 | [19] 0.027 | [20] 0.031

Copied from the entries so far (two entries):
FIBP (UniProt O43427)
inactive: [1] 0.022 | [2] -0.043 | [3] 0.257 | [4] 0.118 | [5] -0.094 | [6] 0.02 | [7] -0.048 | [8] -0.052 | [9] -0.096 | [10] -0.093 | [13] -0.201 | [15] 0.118 | [16] -0.06 | [19] -0.029 | [20] 0.134

FBXO3 (UniProt Q9UK99)
inactive: [1] 0.055 | [2] 0.005 | [3] -0.095 | [4] 0.008 | [5] -0.112 | [6] -0.025 | [7] -0.003 | [8] 0.082 | [9] -0.052 | [10] 0.06 | [11] -0.031 | [12] -0.024 | [13] -0.054 | [14] -0.006 | [15] 0.041 | [16] -0.035 | [19] -0.007 | [20] 0.055

The listing continues.

FAM50A (UniProt Q14320)
inactive: [1] 0.009 | [2] 0.129 | [3] 0.026 | [4] -0.06 | [5] 0.147 | [6] 0.092 | [7] -0.061 | [8] 0.095 | [9] -0.035 | [10] -0.045 | [11] -0.016 | [12] -0.096 | [13] -0.134 | [14] 0.029 | [15] -0.021 | [16] 0.044 | [19] -0.031 | [20] 0.083

FLII isoform 2 (UniProt Q13045)
inactive: [1] -0.009 | [3] -0.009 | [4] -0.047 | [18] -0.182 | [8] 0.056 | [15] 0.232 | [16] -0.022 | [19] -0.033

FDPS (UniProt P14324)
inactive: [1] 0.07 | [3] 0.073 | [4] 0.117 | [5] -0.091 | [6] 0.222 | [7] 0.004 | [9] 0.057 | [10] 0.204 | [11] -0.156 | [12] 0.035 | [13] -0.392 | [14] -0.027 | [15] 0.209 | [16] 0.441 | [19] -0.258 | [20] 0.39
active: [2] -0.768 | [8] -0.493

FANCI (UniProt Q9NVI1)
inactive: [1] -0.074 | [2] -0.138 | [3] 0.139 | [4] 0 | [5] -0.14 | [6] 0.038 | [7] -0.021 | [8] -0.071 | [9] -0.043 | [10] 0.041 | [11] -0.13 | [12] 0.113 | [13] -0.118 | [14] -0.085 | [15] 0.075 | [16] 0.098 | [19] -0.027 | [20] 0.086

FAT3 isoform 1 (UniProt Q8TDW7)
inactive: [1] 0.058 | [2] -0.219 | [3] 0.076 | [17] -0.125 | [6] -0.092 | [7] -0.024 | [8] -0.137 | [9] -0.046 | [11] 0.195 | [12] 0.076 | [13] 0.073 | [14] 0.564 | [16] -0.232 | [19] 0.01 | [20] -0.087

FECH isoform 2 (UniProt P22830)
inactive: [1] 0.527 | [2] 0.021 | [3] 0.161 | [4] -0.12 | [5] 0.178 | [6] 0.029 | [7] 0.071 | [8] -0.37 | [9] 0.315 | [10] -0.125 | [11] 0.189 | [12] -0.04 | [13] 0.46 | [14] 0.134 | [15] 0.549 | [16] 0.248 | [19] 0.134 | [20] 0.034

FNBP1L (UniProt Q5T0N5)
inactive: [1] 0.199 | [2] -0.031 | [4] -0.039 | [17] 0.151 | [5] 0.075 | [18] -0.084 | [6] 0.011 | [7] 0.017 | [8] 0.013 | [9] 0.006 | [10] -0.035 | [11] -0.286 | [12] 0.002 | [13] -0.013 | [14] 0.033 | [15] 0.103 | [16] 0.028 | [19] -0.037 | [20] -0.148

FDXR isoform 7 (UniProt P22570)
active: [20] -0.643
inactive: [1] 0.038 | [2] -0.036 | [3] 0.117 | [4] -0.01 | [5] -0.064 | [6] 0.023 | [7] -0.013 | [8] -0.138 | [9] -0.012 | [10] -0.162 | [11] -0.031 | [12] -0.015 | [13] -0.245 | [14] -0.042 | [15] -0.023 | [16] 0.038 | [19] -0.002

FBXO6 (UniProt Q9NRD1)
inactive: [1] 0.035 | [3] 0.052 | [4] -0.082 | [5] 0.088 | [6] 0.036 | [7] -0.049 | [10] 0.015 | [11] -0.118 | [12] -0.004 | [13] -0.202 | [14] 0.044 | [15] 0.047 | [16] -0.021 | [19] -0.021 | [20] -0.038
active: [2] 0.475 | [8] 0.39 | [9] 0.442
